Data source: PubChem BioAssay AID1259308 (NCATS, 2017)
Purpose: 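Genes whose loss raises luciferase production in HEK293 cells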 (primary screen). System: human HEK293 embryonic kidney cells stably expressing firefly luciferase (HEK-CMV-Luc2-Hygro). Reagents: single siRNA against human genes, 0.8 pmol siRNA per well. Time to read-out: 72 h. Measurement: 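Reporter luminescence and viable-cell signal on separate replicate plates, given as percent of non-targeting control and median/MAD z-scores, plus per-cell luciferase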. Reading the numbers: total luciferase, z-score: higher = more reporter protein produced. Active means: 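Active when the median/MAD z-score for overall luciferase is greater than 3; a gene was taken forward for validation with new siRNAs if at least two of its three siRNAs passed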. Calls: active = raised luciferase; inactive = no rise.
Here is an unselected part of about 59,000 deposited reagents. About 1,510 of them (2.6%) count as active. 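Calls use total luciferase alone and ignore viability, so some active siRNAs may act by altering cell number.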 Entries without a mark were called inactive. Reagents against one gene are numbered here. Not all columns of the deposit are shown.

SERPINI2 #1 — total luciferase, z-score = 0.791
SERPINI2 #2 — total luciferase, z-score = -0.118
SERPINI2 #3 — total luciferase, z-score = 0.474
BLM #1 — total luciferase, z-score = 0.565
BLM #2 — total luciferase, z-score = 0.562
BLM #3 — total luciferase, z-score = -1.25
FABP7 #1 — total luciferase, z-score = 0.716
FABP7 #2 — total luciferase, z-score = 0.154
FABP7 #3 — total luciferase, z-score = -0.533
RAD51AP2 #1 — total luciferase, z-score = -0.923
RAD51AP2 #2 — total luciferase, z-score = -1.47
RAD51AP2 #3 — total luciferase, z-score = -0.41
FFAR2 #1 — total luciferase, z-score = -0.803
FFAR2 #2 — total luciferase, z-score = -0.724
FFAR2 #3 — total luciferase, z-score = -0.00911
ABCA3 #1 — total luciferase, z-score = 0.216
ABCA3 #2 — total luciferase, z-score = -0.109
ABCA3 #3 — total luciferase, z-score = -0.308
CPT1A #1 — total luciferase, z-score = 0.0984
CPT1A #2 — total luciferase, z-score = 0.789
CPT1A #3 — total luciferase, z-score = 0.209

A run of entries from the list above, as a working copy:
SERPINI2 #1 — total luciferase, z-score = 0.791
SERPINI2 #2 — total luciferase, z-score = -0.118
SERPINI2 #3 — total luciferase, z-score = 0.474
BLM #1 — total luciferase, z-score = 0.565

Next records:
SLC1A3 #1 — total luciferase, z-score = -2.93
SLC1A3 #2 — total luciferase, z-score = 0.157
SLC1A3 #3 — total luciferase, z-score = -0.0694
HES3 #1 — total luciferase, z-score = 0.0959
HES3 #2 — total luciferase, z-score = -0.346
HES3 #3 — total luciferase, z-score = 3.71 (active)
IL23A #1 — total luciferase, z-score = 0.294
IL23A #2 — total luciferase, z-score = -0.141
IL23A #3 — total luciferase, z-score = 0.0333
SLC26A11 #1 — total luciferase, z-score = 1.56
SLC26A11 #2 — total luciferase, z-score = 0.347
SLC26A11 #3 — total luciferase, z-score = 0.333
NAIPP3 #1 — total luciferase, z-score = 0.392
NAIPP3 #2 — total luciferase, z-score = -0.16
NAIPP3 #3 — total luciferase, z-score = 0.2
HNRNPL #1 — total luciferase, z-score = -0.244
HNRNPL #2 — total luciferase, z-score = -0.109
HNRNPL #3 — total luciferase, z-score = -1.18
NKAIN4 #1 — total luciferase, z-score = -0.212
NKAIN4 #2 — total luciferase, z-score = -0.0473
NKAIN4 #3 — total luciferase, z-score = 0.209
